Assay [1] deals with T1, Vitamin D receptor (mouse (endogenous in kidney)) (UniProt P48281).
T1 sequence: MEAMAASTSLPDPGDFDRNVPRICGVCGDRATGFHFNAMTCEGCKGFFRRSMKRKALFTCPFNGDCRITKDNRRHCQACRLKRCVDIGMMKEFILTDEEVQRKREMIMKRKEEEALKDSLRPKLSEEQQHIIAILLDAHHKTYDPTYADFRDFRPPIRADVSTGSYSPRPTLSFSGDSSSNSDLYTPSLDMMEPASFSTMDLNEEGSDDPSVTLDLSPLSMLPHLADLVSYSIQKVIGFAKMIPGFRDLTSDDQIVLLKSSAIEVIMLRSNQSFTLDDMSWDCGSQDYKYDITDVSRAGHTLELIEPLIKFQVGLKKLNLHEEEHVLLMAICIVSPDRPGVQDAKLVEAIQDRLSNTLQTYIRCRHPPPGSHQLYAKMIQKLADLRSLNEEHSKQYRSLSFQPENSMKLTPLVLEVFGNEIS
Briefly: co-IP; mouse kidney lysate (300 μg, RIPA buffer; nuclear fractions according to the legend) precleared with protein A/G-agarose, incubated with agarose-conjugated VDR or NF-κB p65 antibody at 4 °C overnight, immunoblot for the other protein; mice pretreated with VitD3 (25 μg/kg at 48, 24 and 1 h) before LPS (1.0 mg/kg), kidneys collected 1 h after LPS.

Protein sequences, listed by entry. Tags and fused reporters are not part of them.
UniProt Q04207: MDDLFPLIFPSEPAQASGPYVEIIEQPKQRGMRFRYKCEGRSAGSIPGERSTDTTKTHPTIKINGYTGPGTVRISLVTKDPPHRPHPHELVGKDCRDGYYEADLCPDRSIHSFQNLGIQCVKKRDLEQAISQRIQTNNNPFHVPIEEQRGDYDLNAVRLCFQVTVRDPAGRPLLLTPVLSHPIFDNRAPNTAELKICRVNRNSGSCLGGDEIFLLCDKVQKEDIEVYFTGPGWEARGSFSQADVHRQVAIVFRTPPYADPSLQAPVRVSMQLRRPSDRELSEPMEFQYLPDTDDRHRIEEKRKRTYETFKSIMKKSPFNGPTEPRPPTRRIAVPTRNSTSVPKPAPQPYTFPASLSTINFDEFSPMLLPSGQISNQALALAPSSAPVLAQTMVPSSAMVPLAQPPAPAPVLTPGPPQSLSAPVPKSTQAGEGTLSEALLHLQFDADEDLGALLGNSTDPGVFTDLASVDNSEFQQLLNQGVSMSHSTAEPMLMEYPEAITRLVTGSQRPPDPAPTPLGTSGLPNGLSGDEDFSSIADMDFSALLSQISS

The target in assay [2] is nuclear factor kappa B (NF-κB) p65 subunit (mouse (endogenous in kidney)) (UniProt Q04207). Described as above.

Two molecules from paper PMC4686931 can be followed below.

No constants are given. Whether binding was seen depends on the method and setting. In cells and extracts the contact can be indirect. Some entries that bind do so weakly or less than the wild type.

As for “nuclear factor kappa B (NF-κB) p65 subunit (from UniProt Q04207 1-549)”, in assay [1], the binding entry is listed as “binds”.

B1: Vitamin D receptor (protein, UniProt P48281 1-422)
chain: MEAMAASTSLPDPGDFDRNVPRICGVCGDRATGFHFNAMTCEGCKGFFRRSMKRKALFTCPFNGDCRITKDNRRHCQACRLKRCVDIGMMKEFILTDEEVQRKREMIMKRKEEEALKDSLRPKLSEEQQHIIAILLDAHHKTYDPTYADFRDFRPPIRADVSTGSYSPRPTLSFSGDSSSNSDLYTPSLDMMEPASFSTMDLNEEGSDDPSVTLDLSPLSMLPHLADLVSYSIQKVIGFAKMIPGFRDLTSDDQIVLLKSSAIEVIMLRSNQSFTLDDMSWDCGSQDYKYDITDVSRAGHTLELIEPLIKFQVGLKKLNLHEEEHVLLMAICIVSPDRPGVQDAKLVEAIQDRLSNTLQTYIRCRHPPPGSHQLYAKMIQKLADLRSLNEEHSKQYRSLSFQPENSMKLTPLVLEVFGNEIS
With B1, in assay [2], the binding entry is recorded as “binds”.
